The record followed here is publication PMC7835017.

The chains behind the UniProt entries cited, without tags or fusion partners.
UniProt O95816: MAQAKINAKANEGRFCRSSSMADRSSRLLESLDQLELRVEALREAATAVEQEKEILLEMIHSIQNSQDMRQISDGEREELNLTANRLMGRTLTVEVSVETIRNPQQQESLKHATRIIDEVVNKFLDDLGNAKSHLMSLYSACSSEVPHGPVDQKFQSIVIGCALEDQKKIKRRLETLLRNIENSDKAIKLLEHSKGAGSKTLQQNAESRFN

In test [1] the target is T1, GST-Fbxo7 (UniProt Q9Y3I1).
T1 sequence: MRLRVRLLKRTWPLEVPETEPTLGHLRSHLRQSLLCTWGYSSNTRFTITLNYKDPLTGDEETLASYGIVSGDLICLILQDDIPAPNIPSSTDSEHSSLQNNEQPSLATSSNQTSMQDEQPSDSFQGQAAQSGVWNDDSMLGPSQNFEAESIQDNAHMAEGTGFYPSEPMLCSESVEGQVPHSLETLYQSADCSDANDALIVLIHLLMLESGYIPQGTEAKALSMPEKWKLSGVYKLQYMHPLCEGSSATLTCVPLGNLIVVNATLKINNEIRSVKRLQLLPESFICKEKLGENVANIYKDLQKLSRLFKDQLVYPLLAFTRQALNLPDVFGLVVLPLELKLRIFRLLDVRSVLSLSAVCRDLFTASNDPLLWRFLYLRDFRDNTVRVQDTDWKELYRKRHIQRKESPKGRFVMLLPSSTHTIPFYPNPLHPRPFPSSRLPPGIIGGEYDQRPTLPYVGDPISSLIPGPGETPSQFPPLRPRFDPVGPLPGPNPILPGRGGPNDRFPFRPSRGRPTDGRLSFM
Description: pull-down; in vitro binding assay: bacterially expressed GST-Fbxo7 or its mutants co-incubated with bacterially expressed His-Bag2; pulled-down proteins blotted with anti-Bag2 and anti-GST; both purified.

In test [2] the target is T2, Fbxo7 expressed in HEK 293A cells (precipitated by anti-Flag antibody) (UniProt Q9Y3I1).
T2 sequence: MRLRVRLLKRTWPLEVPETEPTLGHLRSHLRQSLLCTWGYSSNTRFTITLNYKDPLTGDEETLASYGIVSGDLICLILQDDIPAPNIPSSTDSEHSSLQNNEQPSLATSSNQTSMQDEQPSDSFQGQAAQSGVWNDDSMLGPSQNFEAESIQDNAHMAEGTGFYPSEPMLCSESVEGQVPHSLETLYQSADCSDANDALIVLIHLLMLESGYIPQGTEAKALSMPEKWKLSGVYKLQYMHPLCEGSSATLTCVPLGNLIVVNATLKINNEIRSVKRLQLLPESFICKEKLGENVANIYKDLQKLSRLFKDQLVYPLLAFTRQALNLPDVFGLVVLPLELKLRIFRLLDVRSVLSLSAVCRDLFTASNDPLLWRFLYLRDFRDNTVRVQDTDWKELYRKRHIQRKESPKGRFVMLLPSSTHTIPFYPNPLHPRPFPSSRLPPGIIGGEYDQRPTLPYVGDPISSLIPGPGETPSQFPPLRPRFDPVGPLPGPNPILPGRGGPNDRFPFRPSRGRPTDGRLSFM
The test is described as follows: co-IP; HEK 293A cells co-transfected with Fbxo7 (or its mutants) and Bag2 or Bag5; Fbxo7 precipitated with anti-Flag (Figure 4B); reciprocal precipitation with anti-Flag or anti-Myc (Figure 4C, D); western blot. A general note: A western blot detects proteins with antibodies after separation by electrophoresis.

These are yes or no findings as the source states them, for the method shown. For part of these data: Binding seen in cells or lysates may run through a third protein. Some results given as binding are weak or reduced against the parent protein; the word gives no strength. Where a sequence is shown, tags or fusion partners need not be part of it.

On to His-Bag2 (from UniProt O95816 1-211), for which the binding result in test [1] was “binds”.

Consider “Bag2 expressed in HEK 293A cells (from UniProt O95816 1-211)”, for which the binding result in test [2] is on record as “binds”.

B1: Bag5 expressed in HEK 293A cells (protein, UniProt Q9UL15 1-447)
chain: MDMGNQHPSISRLQEIQKEVKSVEQQVIGFSGLSDDKNYKKLERILTKQLFEIDSVDTEGKGDIQQARKRAAQETERLLKELEQNANHPHRIEIQNIFEEAQSLVREKIVPFYNGGNCVTDEFEEGIQDIILRLTHVKTGGKISLRKARYHTLTKICAVQEIIEDCMKKQPSLPLSEDAHPSVAKINFVMCEVNKARGVLIALLMGVNNNETCRHLSCVLSGLIADLDALDVCGRTEIRNYRREVVEDINKLLKYLDLEEEADTTKAFDLRQNHSILKIEKVLKRMREIKNELLQAQNPSELYLSSKTELQGLIGQLDEVSLEKNPCIREARRRAVIEVQTLITYIDLKEALEKRKLFACEEHPSHKAVWNVLGNLSEIQGEVLSFDGNRTDKNYIRLEELLTKQLLALDAVDPQGEEKCKAARKQAVRLAQNILSYLDLKSDEWEY
As to B1, the binding result in test [2] is given as “no binding”.
